Assay results reported in PubChem BioAssay AID1347076 (National Center for Advancing Translational Sciences (NCATS), 2019).
Hit rate of the full screen: of about 400,000 compounds, about 13,000 (3.2%) were called active. The shares of active, inactive and inconclusive entries below differ from those in the screen. Calls come from the whole dose curve; as a rule, active = well fitted cell-killing curve with a large enough effect; inconclusive = small, poorly fitted or top-dose-only effect, or effect the other way; inactive = flat fitted curve, though single readings scatter. Potencies beside an inconclusive call are fits to weak or partial responses and may not hold up.

Experiment: qHTS assay for MDR1-selective chemotherapeutics: Primary screen using the drug-selected MDR subline cells KB-V1; note: nearly all actives have a fitted effect of over 60% in size
Conditions: KB-V1 MDR cells viability, CellTiter-Glo, 72 h; activity change, negative = cytotoxicity: at 46.1 µM (top of the series)
How it was run: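 In this primary screen, KB-V1 cells overexpressing P-gp are incubated with library compounds (lowest to highest concentration) for 72 h at 37 degrees C before a luminescent ATP viability read.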
% is set by controls: 0 for no effect and ±100 for the full control effect; potency is the fitted concentration of half-maximal effect.

Row | Structure (SMILES) | Potency | activity change, negative = cytotoxicity
1 | Cc1c(C(=O)Nc2ccc(F)cc2)nnn1-c1cccc(C(F)(F)F)c1 | inconclusive: 20.6 µM [cytotoxic, single point] | 
2 | Cc1cc(C)c(C(=O)COC(=O)CNC(=O)c2ccccc2C)c(C)c1 |  | inactive: 3.87%
3 | CN(C)S(=O)(=O)c1cccc(NC(=O)c2ccncc2)c1 | inconclusive: 16.4 µM [cytotoxic, single point] | 
4 | CCOC(=O)C1(Cc2cccc(OC)c2)CCN(Cc2cccc(O)c2)CC1 | inconclusive: 18.4 µM [cytotoxic, partial curve] | 
5 | Cc1ccccc1C(=O)NNC1=NCCC1 |  | inactive: 1.05%
6 | O=C(CN1CCN(S(=O)(=O)c2ccc(Cl)s2)CC1)N1CCCCC1 |  | inactive: 0%
7 | C=CCc1cccc(/C=N/NC(=O)C(C)Nc2ccc(C)cc2)c1O (stereo not given) | active: 20.6 µM | 
8 | O=C(COc1ccc(Br)cc1)N(Cc1cccs1)C1CCS(=O)(=O)C1 (stereo not given) | inconclusive: 29.1 µM [cytotoxic, single point] | 
9 | O=C(CCC1CCCC1)Nc1ccccc1-c1ccccc1 | active: 18.4 µM | 
10 | CCCSc1nc2c(c(=O)n(C)c(=O)n2C)n1Cc1ccc(C)cc1 | inconclusive: 5.8 µM [cytotoxic, partial curve] | 
11 | O=C(NC1CCCCC1)N1CCC(c2nc3ccccc3[nH]2)CC1 |  | inactive: 10.2%
12 | COc1cccc(CC(=O)NC2CCSc3ccccc32)c1 (stereo not given) | inconclusive: 7.31 µM [cytotoxic, partial curve, poor fit] | 
13 | COc1ccc(OC)c(CCNC(=O)CN2C(=O)COc3ccc(S(=O)(=O)N4CCC(C)CC4)cc32)c1 | inconclusive: 7.31 µM [cytotoxic, partial curve] | 
14 | COc1ccc(Cn2nnnc2CN2CCC(c3nc4ccccc4s3)CC2)cc1 | inconclusive: 23.1 µM [cytotoxic, single point] | 
15 | CCCC(=O)NC(c1cccs1)c1cc([N+](=O)[O-])c2cccnc2c1O (stereo not given) | inconclusive: 6.51 µM [cytotoxic, partial curve] | 
16 | Cn1c(=O)cc(C(=O)N/N=C/c2ccc(Cl)cc2)[nH]c1=O | inconclusive: 4.61 µM [rising, partial curve, poor fit] | 
17 | COCCCNCCOCCSc1ccc(Cl)cc1 | inconclusive: 29.1 µM [cytotoxic, single point] | 
18 | Clc1cccc(CNc2nnnn2-c2ccccc2)c1 | active: 23.1 µM | 
19 | OCCC1CN(Cc2cccc3nonc23)CCN1Cc1ccsc1 (stereo not given) | inconclusive: 2.91 µM [cytotoxic, full curve] | 
20 | CN(C(=O)CSc1nnc(-c2cccs2)n1C1CC1)C1CCS(=O)(=O)C1 (stereo not given) |  | inactive: 6.83%
21 | Cc1cccc(NS(=O)(=O)c2ccc3c(c2)Cc2cc(S(=O)(=O)Nc4cccc(C)c4C)ccc2-3)c1C | inconclusive: 7.31 µM [cytotoxic, partial curve] | 
22 | O=C(C1CCCN(S(=O)(=O)c2cccc3nsnc23)C1)N1CCCCCC1 (stereo not given) |  | inactive: 17.3%
23 | O=C(Nc1ccccc1)C(O)C(O)C(=O)Nc1ccccc1 (stereo not given) | inconclusive: 4.61 µM [rising, full curve, poor fit] | 
24 | COc1cccc(CNC(=O)[C@@H]2CCCN2C(=O)[C@@H]2CCCN2C(=O)c2ccccc2)c1 |  | inconclusive: 41.8%

Row | Structure (SMILES) | Potency | activity change, negative = cytotoxicity
25 | COc1ccc(NC(=O)C(C)N2c3cccc4cccc(c34)S2(=O)=O)cc1OC (stereo not given) | active: 5.17 µM | 
26 | C=CCOc1cccc(C2C(C(=O)c3ccc(C)o3)=C(O)C(=O)N2CCN2CCOCC2)c1 (stereo not given) |  | inactive: -32.9%
27 | Cc1ccc(C(c2c(C)[nH][nH]c2=O)c2c(C)[nH][nH]c2=O)cc1 | inconclusive: 29.1 µM [rising, single point] | 
28 | O=C(CCCc1nc(-c2ccc(Cl)cc2)no1)NC1CCCC1 | inconclusive: 4.61 µM [cytotoxic, partial curve] | 
29 | Fc1ccc(Cn2nnnc2CN2CCc3ccccc3C2)cc1 | inconclusive: 13 µM [cytotoxic, partial curve, poor fit] | 
30 | CCCNc1c(NS(=O)(=O)c2ccc(C)c(C)c2)c(=O)oc2ccccc12 | inconclusive: 0.366 µM [cytotoxic, full curve] | 
31 | C/C(=N\NC(=O)CCc1ccccc1)C1C(=O)c2ccccc2C1=O | active: 9.2 µM | 
32 | CCOc1ccccc1NC(=O)c1sc2nc(-c3ccc(OC)cc3)ccc2c1N | inconclusive: 29.1 µM [cytotoxic, single point] | 
33 | CC(C)OC(=O)C1C(=O)CC(C)(O)C(C(=O)OC(C)C)C1c1cccc(O)c1 (stereo not given) | inconclusive: 9.2 µM [cytotoxic, partial curve] | 
34 | COc1ccc(Br)cc1C(=O)Nc1ccccc1N1CCCC1 | inconclusive: 25.9 µM [cytotoxic, single point] | 
35 | CCCOc1ccc(N2CC(C(=O)Nc3ccc(N4CCOCC4)cc3)CC2=O)cc1 (stereo not given) | inconclusive: 29.1 µM [rising, single point] | 
36 | CC1(C)CC(=O)C(=Cc2cn(CCC#N)nc2-c2ccc(F)cc2)C(=O)C1 | inconclusive: 7.31 µM [rising, partial curve, poor fit] | 
37 | COc1ccc(-n2c(/C=C/c3cccc4ccccc34)nc3ccccc3c2=O)cc1Cl | inconclusive: 23.1 µM [cytotoxic, single point] | 
38 | COc1ccc(C(=O)Nc2ccc(N3CCN(Cc4ccccc4)CC3)cc2)cc1 |  | inactive: 5.85%
39 | C=CCn1c(SCC(=O)N2CCc3ccccc3C2)nc2sc(C)c(C)c2c1=O |  | inactive: -9.03%
40 | CCCOc1ccc(C(=O)c2ccccc2C(=O)OC2CCOC2=O)cc1OCCC (stereo not given) |  | inactive: -17.8%
41 | Cc1ccc(S(=O)(=O)NCC(=O)N(CC2CCCO2)C(C(=O)NC2CCCCC2)C(C)C)cc1 (stereo not given) | inconclusive: 0.517 µM [cytotoxic, full curve, poor fit] | 
42 | Cc1cc(-c2nn(C)c(=O)c3ccccc23)cc(C)c1O | inconclusive: 29.1 µM [cytotoxic, single point] | 
43 | COC(=O)c1ccc2c(=O)n(Cc3ccc(C(=O)NCCCN4CCOCC4)cc3)c(=S)[nH]c2c1 | inconclusive: 29.1 µM [rising, partial curve, poor fit] | 
44 | Cc1ccc(-c2cnc(C(O)c3cc(C)cc(C)c3)[nH]2)cc1 (stereo not given) |  | inactive: -6.23%
45 | C/C(CCc1ccccc1)=N\NC(=O)c1ccccc1[N+](=O)[O-] | inconclusive: 6.51 µM [rising, partial curve, poor fit] | 
46 | COc1cc(-c2cc(C(=O)NCc3ccco3)c3ccccc3n2)cc(OC)c1OC | inconclusive: 16.4 µM [cytotoxic, partial curve, poor fit] | 
47 | CC(c1nnc(SCC(=O)Nc2cccnc2Cl)n1Cc1ccccc1)N(C)C (stereo not given) | inconclusive: 29.1 µM [cytotoxic, single point] | 
48 | CCc1ccc(N2C(=O)Cc3c2nc(N)c(C#N)c3N)cc1 | inconclusive: 29.1 µM [cytotoxic, single point] | 

Row | Structure (SMILES) | Potency | activity change, negative = cytotoxicity
49 | O=C(NCC1CCCO1)c1cc2ccccc2oc1=O (stereo not given) | inconclusive: 29.1 µM [rising, single point] | 
50 | O=C(NCc1ccco1)c1nn2cccnc2c1Cl | inconclusive: 29.1 µM [rising, single point] | 
51 | Cc1cccc(-c2nnc3sc(-c4ccccc4C)nn23)c1 | inconclusive: 9.2 µM [cytotoxic, single point] | 
52 | CCOc1ccc2[nH]c(=O)c(CN(CCc3ccccc3)C(=O)N3CCCC3)cc2c1 |  | inactive: -32.7%
53 | Cc1nnc(SCc2nc(-c3ccc(Cl)cc3)no2)n1-c1ccc(F)cc1 |  | inactive: 0%
54 | CCOC(=O)NC(=S)Nc1ccc(OC)cc1 | inconclusive: 29.1 µM [rising, single point] | 
55 | CCn1c(SCC(=O)Nc2ccc3c(c2)OCO3)nnc1-c1cnccn1 | active: 20.6 µM | 
56 | COc1cc(C#Cc2ccc3cc(CCCO)oc(=O)c3c2)cc(OC)c1 | active: 3.66 µM | 
57 | COc1ccccc1NC(=O)C(C)OC(=O)C1COc2ccccc2O1 (stereo not given) | inconclusive: 20.6 µM [rising, single point] | 
58 | CC(C)S(=O)(=O)N1CCCC(c2cc(C(=O)NCc3ccccc3)no2)C1 (stereo not given) |  | inactive: 4.07%
59 | C=C[C@]1(C)C=C2C(=O)C[C@H]3C(C)(C)CCC[C@]3(C(=O)O)[C@@]2(O)CC1 | inconclusive: 32.6 µM [cytotoxic, single point] | 
60 | O=C(c1ccc2c(=O)n(-c3ccccc3)c(=S)[nH]c2c1)N1CCCCC1 | inconclusive: 6.51 µM [cytotoxic, partial curve] | 
61 | CC1(C)CC(=O)C2=C(C1)OC(N)=C(C#N)C2c1cccs1 (stereo not given) |  | inactive: -11.9%
62 | Cc1ccc(Cn2cc(/C=C(/C#N)C(=O)Nc3cccc(Cl)c3)c3ccccc32)cc1 | inconclusive: 7.31 µM [cytotoxic, partial curve] | 
63 | O=C(Cn1ncc2c([nH]c3ccccc32)c1=O)N1CCN(c2ccc(F)cc2)CC1 |  | inactive: 3.82%
64 | Cc1ccc2nsnc2c1S(=O)(=O)N1CCOCC1 | inconclusive: 4.11 µM [rising, partial curve, poor fit] | 
65 | CC1CN(c2ccccn2)C(C)CN1C(=S)Nc1ccccc1 (stereo not given) | active: 23.1 µM | 
66 | O=C(CN1C(=O)C2C3C=CC(C4CC34)C2C1=O)Oc1ccccc1 (stereo not given) | inconclusive: 20.6 µM [rising, single point] | 
67 | CC/C(=N\O)c1c(O)c2c(n(-c3ccccc3)c1=O)CCCC2 | inconclusive: 14.6 µM [cytotoxic, single point] | 
68 | Cc1cc(C)cc(C(O)c2ncc(-c3ccccc3)[nH]2)c1 (stereo not given) |  | inactive: 3.03%
69 | O=c1cc(-c2ccccc2)nc2cc(-c3ccc(F)cc3)[nH]n12 | inconclusive: 14.6 µM [cytotoxic, partial curve, poor fit] | 
70 | C=C1CCN([C@H](C(=O)NCc2ccco2)C(C)C)S(=O)(=O)c2ccccc21 |  | inactive: -15.3%

Copied from the listing for reference:
Row | Structure (SMILES) | Potency | activity change, negative = cytotoxicity
36 | CC1(C)CC(=O)C(=Cc2cn(CCC#N)nc2-c2ccc(F)cc2)C(=O)C1 | inconclusive: 7.31 µM [rising, partial curve, poor fit] | 
37 | COc1ccc(-n2c(/C=C/c3cccc4ccccc34)nc3ccccc3c2=O)cc1Cl | inconclusive: 23.1 µM [cytotoxic, single point] | 
38 | COc1ccc(C(=O)Nc2ccc(N3CCN(Cc4ccccc4)CC3)cc2)cc1 |  | inactive: 5.85%
39 | C=CCn1c(SCC(=O)N2CCc3ccccc3C2)nc2sc(C)c(C)c2c1=O |  | inactive: -9.03%
40 | CCCOc1ccc(C(=O)c2ccccc2C(=O)OC2CCOC2=O)cc1OCCC (stereo not given) |  | inactive: -17.8%
41 | Cc1ccc(S(=O)(=O)NCC(=O)N(CC2CCCO2)C(C(=O)NC2CCCCC2)C(C)C)cc1 (stereo not given) | inconclusive: 0.517 µM [cytotoxic, full curve, poor fit] | 
42 | Cc1cc(-c2nn(C)c(=O)c3ccccc23)cc(C)c1O | inconclusive: 29.1 µM [cytotoxic, single point] | 
43 | COC(=O)c1ccc2c(=O)n(Cc3ccc(C(=O)NCCCN4CCOCC4)cc3)c(=S)[nH]c2c1 | inconclusive: 29.1 µM [rising, partial curve, poor fit] | 
44 | Cc1ccc(-c2cnc(C(O)c3cc(C)cc(C)c3)[nH]2)cc1 (stereo not given) |  | inactive: -6.23%
45 | C/C(CCc1ccccc1)=N\NC(=O)c1ccccc1[N+](=O)[O-] | inconclusive: 6.51 µM [rising, partial curve, poor fit] | 
46 | COc1cc(-c2cc(C(=O)NCc3ccco3)c3ccccc3n2)cc(OC)c1OC | inconclusive: 16.4 µM [cytotoxic, partial curve, poor fit] | 
47 | CC(c1nnc(SCC(=O)Nc2cccnc2Cl)n1Cc1ccccc1)N(C)C (stereo not given) | inconclusive: 29.1 µM [cytotoxic, single point] | 
48 | CCc1ccc(N2C(=O)Cc3c2nc(N)c(C#N)c3N)cc1 | inconclusive: 29.1 µM [cytotoxic, single point] | 
49 | O=C(NCC1CCCO1)c1cc2ccccc2oc1=O (stereo not given) | inconclusive: 29.1 µM [rising, single point] | 
50 | O=C(NCc1ccco1)c1nn2cccnc2c1Cl | inconclusive: 29.1 µM [rising, single point] | 
51 | Cc1cccc(-c2nnc3sc(-c4ccccc4C)nn23)c1 | inconclusive: 9.2 µM [cytotoxic, single point] | 
52 | CCOc1ccc2[nH]c(=O)c(CN(CCc3ccccc3)C(=O)N3CCCC3)cc2c1 |  | inactive: -32.7%
53 | Cc1nnc(SCc2nc(-c3ccc(Cl)cc3)no2)n1-c1ccc(F)cc1 |  | inactive: 0%
54 | CCOC(=O)NC(=S)Nc1ccc(OC)cc1 | inconclusive: 29.1 µM [rising, single point] | 
55 | CCn1c(SCC(=O)Nc2ccc3c(c2)OCO3)nnc1-c1cnccn1 | active: 20.6 µM | 
56 | COc1cc(C#Cc2ccc3cc(CCCO)oc(=O)c3c2)cc(OC)c1 | active: 3.66 µM | 
